Measured values published in the supplement of paper PMC10849652.
This is one part of the list. Residues, ends and D or L forms follow the SMILES beside them. *: point of attachment. Cbz = O=C(OCc1ccccc1)*

The chains behind the UniProt entries cited, without tags or fusion partners. Where a name states a change or a piece, a line headed by the entry shows the natural chain unless it says otherwise.
UniProt Q9UJT0: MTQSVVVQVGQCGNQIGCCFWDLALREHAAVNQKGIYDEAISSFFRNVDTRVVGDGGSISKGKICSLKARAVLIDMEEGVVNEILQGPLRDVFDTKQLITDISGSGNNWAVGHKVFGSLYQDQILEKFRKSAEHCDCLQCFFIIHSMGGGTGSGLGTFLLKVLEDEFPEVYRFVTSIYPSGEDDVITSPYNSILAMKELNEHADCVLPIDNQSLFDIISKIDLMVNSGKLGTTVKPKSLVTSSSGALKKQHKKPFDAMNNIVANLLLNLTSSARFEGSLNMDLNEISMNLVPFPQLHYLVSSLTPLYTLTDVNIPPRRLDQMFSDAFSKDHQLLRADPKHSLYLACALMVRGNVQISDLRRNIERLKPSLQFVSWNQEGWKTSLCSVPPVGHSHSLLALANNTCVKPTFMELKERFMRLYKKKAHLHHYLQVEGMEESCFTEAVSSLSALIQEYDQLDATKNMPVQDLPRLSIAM
UniProt Q99614: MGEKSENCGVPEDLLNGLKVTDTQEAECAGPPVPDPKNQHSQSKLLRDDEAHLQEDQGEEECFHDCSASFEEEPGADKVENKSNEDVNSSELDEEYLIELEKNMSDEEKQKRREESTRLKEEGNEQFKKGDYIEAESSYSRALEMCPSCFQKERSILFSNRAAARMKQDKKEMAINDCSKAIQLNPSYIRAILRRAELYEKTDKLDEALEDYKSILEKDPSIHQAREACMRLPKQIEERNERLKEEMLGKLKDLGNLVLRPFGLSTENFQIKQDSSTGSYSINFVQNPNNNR
UniProt Q13509, whole entry, looked up: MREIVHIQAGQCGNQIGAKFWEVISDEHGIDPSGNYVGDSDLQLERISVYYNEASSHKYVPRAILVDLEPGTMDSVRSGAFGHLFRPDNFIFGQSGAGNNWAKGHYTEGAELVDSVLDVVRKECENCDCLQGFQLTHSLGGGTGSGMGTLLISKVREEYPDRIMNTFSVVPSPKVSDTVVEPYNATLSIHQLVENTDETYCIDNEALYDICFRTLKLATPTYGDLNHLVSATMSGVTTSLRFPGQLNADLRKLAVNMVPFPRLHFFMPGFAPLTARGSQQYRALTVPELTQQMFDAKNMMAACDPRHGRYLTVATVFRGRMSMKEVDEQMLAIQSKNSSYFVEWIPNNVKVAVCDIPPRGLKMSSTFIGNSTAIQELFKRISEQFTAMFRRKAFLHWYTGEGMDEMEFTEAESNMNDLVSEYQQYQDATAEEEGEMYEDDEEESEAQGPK
UniProt P61081: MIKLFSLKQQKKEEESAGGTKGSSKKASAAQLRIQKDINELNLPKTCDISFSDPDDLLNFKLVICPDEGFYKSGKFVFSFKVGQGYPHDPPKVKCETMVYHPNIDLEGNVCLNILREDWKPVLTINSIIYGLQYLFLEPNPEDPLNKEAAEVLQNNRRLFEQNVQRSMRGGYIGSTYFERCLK
UniProt P40222: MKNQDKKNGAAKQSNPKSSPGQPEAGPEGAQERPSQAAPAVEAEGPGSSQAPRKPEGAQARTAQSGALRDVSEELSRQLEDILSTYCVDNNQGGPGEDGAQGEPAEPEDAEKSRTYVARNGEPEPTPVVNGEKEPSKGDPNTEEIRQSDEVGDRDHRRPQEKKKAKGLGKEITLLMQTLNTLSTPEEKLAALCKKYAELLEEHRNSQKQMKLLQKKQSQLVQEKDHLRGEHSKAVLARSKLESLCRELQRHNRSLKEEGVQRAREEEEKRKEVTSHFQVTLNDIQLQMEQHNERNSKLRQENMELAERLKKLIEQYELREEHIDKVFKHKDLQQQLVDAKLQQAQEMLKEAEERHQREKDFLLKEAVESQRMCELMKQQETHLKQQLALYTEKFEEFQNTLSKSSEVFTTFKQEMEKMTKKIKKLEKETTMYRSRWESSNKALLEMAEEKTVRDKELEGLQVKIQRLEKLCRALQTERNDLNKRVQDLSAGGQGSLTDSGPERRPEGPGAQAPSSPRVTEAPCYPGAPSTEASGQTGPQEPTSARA
UniProt Q9H4B7, whole entry, looked up: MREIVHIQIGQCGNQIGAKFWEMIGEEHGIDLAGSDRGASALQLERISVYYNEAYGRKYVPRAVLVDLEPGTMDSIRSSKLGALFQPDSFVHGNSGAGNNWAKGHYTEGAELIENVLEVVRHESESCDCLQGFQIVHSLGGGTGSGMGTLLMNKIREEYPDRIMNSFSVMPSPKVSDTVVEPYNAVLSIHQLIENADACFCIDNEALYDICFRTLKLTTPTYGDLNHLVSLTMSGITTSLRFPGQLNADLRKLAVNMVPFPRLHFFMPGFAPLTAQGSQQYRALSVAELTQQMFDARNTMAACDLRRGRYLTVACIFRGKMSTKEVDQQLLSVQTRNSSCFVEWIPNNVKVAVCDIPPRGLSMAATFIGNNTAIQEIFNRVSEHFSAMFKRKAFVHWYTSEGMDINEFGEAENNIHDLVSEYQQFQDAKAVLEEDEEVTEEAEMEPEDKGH
UniProt Q712K3: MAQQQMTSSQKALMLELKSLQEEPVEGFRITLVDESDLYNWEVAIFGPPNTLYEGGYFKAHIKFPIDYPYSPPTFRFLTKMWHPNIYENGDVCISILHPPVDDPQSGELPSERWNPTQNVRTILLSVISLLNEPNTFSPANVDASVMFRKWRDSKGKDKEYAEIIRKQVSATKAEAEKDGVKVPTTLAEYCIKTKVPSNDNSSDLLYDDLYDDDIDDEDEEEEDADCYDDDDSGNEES
UniProt Q9UBT2: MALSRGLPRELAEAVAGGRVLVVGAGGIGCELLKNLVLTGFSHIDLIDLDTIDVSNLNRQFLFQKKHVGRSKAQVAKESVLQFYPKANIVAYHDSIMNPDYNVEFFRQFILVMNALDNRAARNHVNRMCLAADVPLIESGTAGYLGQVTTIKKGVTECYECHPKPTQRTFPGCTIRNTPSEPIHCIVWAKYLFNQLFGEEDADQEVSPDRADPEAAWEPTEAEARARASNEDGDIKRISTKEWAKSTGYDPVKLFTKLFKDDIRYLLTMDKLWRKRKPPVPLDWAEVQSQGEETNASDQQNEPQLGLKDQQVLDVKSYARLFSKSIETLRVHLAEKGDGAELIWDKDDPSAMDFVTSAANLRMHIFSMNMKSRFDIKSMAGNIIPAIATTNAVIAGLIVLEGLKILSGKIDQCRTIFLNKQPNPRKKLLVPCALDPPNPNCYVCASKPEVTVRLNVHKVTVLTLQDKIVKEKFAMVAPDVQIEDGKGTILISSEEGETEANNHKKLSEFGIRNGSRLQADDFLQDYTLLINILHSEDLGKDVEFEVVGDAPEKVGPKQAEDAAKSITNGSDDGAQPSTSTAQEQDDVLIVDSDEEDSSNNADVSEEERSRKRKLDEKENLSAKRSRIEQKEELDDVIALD
UniProt Q13630: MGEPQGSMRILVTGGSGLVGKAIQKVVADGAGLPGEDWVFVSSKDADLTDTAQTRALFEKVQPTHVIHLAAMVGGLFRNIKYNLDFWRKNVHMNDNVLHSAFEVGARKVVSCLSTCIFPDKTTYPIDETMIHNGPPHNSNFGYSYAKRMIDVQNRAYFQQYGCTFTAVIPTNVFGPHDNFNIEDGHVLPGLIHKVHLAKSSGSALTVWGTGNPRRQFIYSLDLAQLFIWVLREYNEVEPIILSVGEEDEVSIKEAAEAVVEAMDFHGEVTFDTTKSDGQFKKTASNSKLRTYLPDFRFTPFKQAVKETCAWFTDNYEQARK
UniProt Q969M7: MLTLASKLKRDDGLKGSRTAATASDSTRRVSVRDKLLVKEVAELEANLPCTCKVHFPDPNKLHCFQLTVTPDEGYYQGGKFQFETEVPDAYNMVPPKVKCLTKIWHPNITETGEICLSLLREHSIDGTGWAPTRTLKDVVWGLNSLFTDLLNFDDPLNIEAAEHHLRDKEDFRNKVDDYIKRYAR
UniProt Q6IPR3: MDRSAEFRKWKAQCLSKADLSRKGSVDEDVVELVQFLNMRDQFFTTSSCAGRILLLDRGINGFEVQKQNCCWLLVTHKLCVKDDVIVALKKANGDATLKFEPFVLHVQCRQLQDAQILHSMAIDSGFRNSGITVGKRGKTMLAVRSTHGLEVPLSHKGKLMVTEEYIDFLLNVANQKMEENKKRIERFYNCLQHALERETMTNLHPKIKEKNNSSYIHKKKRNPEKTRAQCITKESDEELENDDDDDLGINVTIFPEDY
UniProt P83876: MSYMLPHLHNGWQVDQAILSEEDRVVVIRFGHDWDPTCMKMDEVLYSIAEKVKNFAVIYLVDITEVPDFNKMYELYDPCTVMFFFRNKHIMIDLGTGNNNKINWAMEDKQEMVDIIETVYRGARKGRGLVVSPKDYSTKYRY
UniProt Q969E8: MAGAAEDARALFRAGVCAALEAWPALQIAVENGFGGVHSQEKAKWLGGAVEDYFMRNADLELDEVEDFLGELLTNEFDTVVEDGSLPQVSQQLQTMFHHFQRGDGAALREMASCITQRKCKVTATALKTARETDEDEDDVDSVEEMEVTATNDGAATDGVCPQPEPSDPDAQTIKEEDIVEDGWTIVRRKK

Assays:
Experiment in all cases: log2 fold change, soluble protein after heating vs DMSO (PISA); higher = thermal stabilisation; K562 cells, 10 uM, 30 min; active = over 0.2 and 3.5 SD of the protein, either way, in both replicates (recomputed)
erlotinib = compound: C#Cc1cccc(Nc2ncnc3cc(OCCOC)c(OCCOC)cc23)c1 [erlotinib]
Outline: (§1)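 K562 cells at 2×10^6 cells/mL were treated with 10 μM compound for 30 min. Aliquots were heated for 3 min across 48°C-58°C, pooled, and extracted in PBS with 0.5% NP-40 at 4°C; soluble protein was the supernatant after 21,000xg for 90 min. Soluble protein was quantified by TMTpro 16plex LC-MS/MS with channel sums equalised, and reported as log2 fold change in thermal stability against DMSO controls, with values from duplicates.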

[1] = compound: C/C(=N\NC(=O)C1=CC(=CC=C1)S(=O)(=O)N2CCOCC2)/C3=C(C=CC(=C3)Cl)O
Outline: as §1

[2] = compound: C1=CC(=C(C=C1Cl)C2=NC3=NC=CN=C3C(=N2)NC4=CC=NC=C4)F
Outline: as §1

[3] = compound: C1=CC(=CC=C1C2=NC3=C(N2)C=C(C=C3)C(=O)N)OC4=CC=C(C=C4)Cl
Outline: as §1

[4] = compound: C1=CC2=C(C=CC(=C2)/C=C\3/C(=O)NC(=NCC4=CC=CS4)S3)N=C1
Outline: as §1

[5] = compound: C1=CC2=NC=CN=C2C=C1/C=C/3\C(=O)NC(=O)S3
Outline: as §1

[6] = compound: C1=CC=C(C=C1)C2=NC(=C(N2)C3=CC=NC=C3)C4=CC(=C(C=C4)Cl)O
Outline: as §1

[7] = compound: C1=CC=C2C(=C1)C3=NNC4=CC=CC(=C43)C2=O
Outline: as §1

[8] = compound: C1CCN(C1)C(=O)NC2=CC=CC(=C2)NC3=NC=C(C(=N3)NCCC4=CN=CN4)Br
Outline: as §1

[9] = compound: C1CN(CCC1(CC2=CC=C(C=C2)Cl)N)C3=NC=NC4=C3C=CN4
Outline: as §1

IRAK-1-4 Inhibitor I = compound: C1COCCN1CCN2C3=CC=CC=C3N=C2NC(=O)C4=CC(=CC=C4)[N+](=O)[O-] [IRAK-1-4 Inhibitor I]
Outline: as §1

ibrutinib = compound: C=CC(=O)N1CCC[C@@H](n2nc(-c3ccc(Oc4ccccc4)cc3)c3c(N)ncnc32)C1 [ibrutinib]
Outline: as §1

[10] = compound: CC(=O)c1cnc2ccc(-c3cc(Cl)c(O)c(Cl)c3)nc2c1N[C@H]1CC[C@H](CN(C)C)CC1
Outline: as §1

ralimetinib = compound: CC(C)(C)Cn1c(N)nc2ccc(-c3[nH]c(C(C)(C)C)nc3-c3ccc(F)cc3)nc21 [ralimetinib]
Outline: as §1

[11] = compound: CC(C)(O)CC(=O)NCCn1ccc2ncnc(Nc3ccc(Oc4cccc(C(F)(F)F)c4)c(Cl)c3)c21
Outline: as §1

[12] = compound: CC(C)C1=C2N=C(C=C(N2N=C1)NCC3=CC=CC=C3)NCCCCCCN
Outline: as §1

[13] = compound: CC(C)C[C@@H](C=O)NC(=O)[C@H](CC(C)C)NC(=O)[C@H](CC(C)C)NC(=O)OCc1ccccc1
Outline: as §1

pinometostat = compound: CC(C)N(C[C@H]1O[C@@H](n2cnc3c(N)ncnc32)[C@H](O)[C@@H]1O)[C@H]1C[C@@H](CCc2nc3cc(C(C)(C)C)ccc3[nH]2)C1 [pinometostat]
Outline: as §1

[14] = compound: CC1=C(C(CC(=O)N1)C2=CC=C(C=C2)C(F)(F)F)C(=O)NC3=C(C=C4C(=C3)C=NN4)F
Outline: as §1

[15] = compound: CC1=C(C2=C(C=C1)C(=O)C3=CC=CC=C3N2CCCN)C
Outline: as §1

Measured: log2 fold change

TUBE1 (UniProt Q9UJT0)
inactive: erlotinib 0.03 | [1] 0.027 | [2] -0.011 | [3] 0.017 | [4] 0.009 | [5] -0.014 | [6] -0.022 | [7] 0.01 | [8] -0.016 | [9] -0.017 | IRAK-1-4 Inhibitor I -0.006 | ibrutinib 0.126 | [10] -0.045 | ralimetinib -0.011 | [11] 0.002 | [12] 0.087 | [13] 0.021 | pinometostat 0.07 | [14] 0.012 | [15] -0.005

TTC27 (UniProt Q6P3X3)
inactive: erlotinib 0.038 | [1] 0.126 | [2] -0.13 | [3] -0.053 | [4] -0.02 | [5] -0.026 | [6] 0.112 | [7] -0.01 | [8] -0.011 | [9] -0.099 | IRAK-1-4 Inhibitor I -0.079 | ibrutinib -0.135 | [10] 0.062 | ralimetinib 0.192 | [11] -0.02 | [12] -0.327 | [13] 0.092 | pinometostat 0.277 | [14] 0.008 | [15] -0.004

TTC1 (UniProt Q99614)
inactive: erlotinib -0.037 | [1] -0.017 | [2] 0.001 | [3] 0.004 | [4] 0.011 | [5] 0.024 | [6] -0.009 | [7] 0.001 | [8] -0.001 | [9] 0.041 | IRAK-1-4 Inhibitor I 0.057 | ibrutinib 0.022 | [10] 0 | ralimetinib -0.019 | [11] 0.046 | [12] 0.046 | [13] -0.002 | pinometostat -0.026 | [14] 0.012 | [15] -0.006

TUBB3 (UniProt Q13509)
inactive: erlotinib 0.023 | [1] 0.05 | [2] 0.037 | [3] 0.032 | [4] -0.022 | [5] -0.035 | [6] 0.095 | [7] 0.017 | [8] -0.024 | [9] 0.081 | IRAK-1-4 Inhibitor I 0.095 | ibrutinib 0.054 | [10] 0.032 | ralimetinib 0.004 | [11] -0.021 | [12] -0.006 | [13] -0.012 | pinometostat -0.023 | [14] 0.007 | [15] 0.003

UBE2M (UniProt P61081)
inactive: erlotinib 0.01 | [1] 0.019 | [2] 0.099 | [3] -0.026 | [4] 0.039 | [5] 0.01 | [6] 0.015 | [7] 0.016 | [8] -0.005 | [9] 0.033 | IRAK-1-4 Inhibitor I 0.038 | ibrutinib 0.002 | [10] -0.019 | ralimetinib -0.025 | [11] -0.048 | [12] -0.097 | [13] -0.013 | pinometostat -0.031 | [14] -0.007 | [15] 0.049

TXLNA (UniProt P40222)
inactive: erlotinib -0.039 | [1] 0.033 | [2] 0.071 | [3] -0.008 | [4] -0.001 | [5] 0 | [6] 0.001 | [7] 0.035 | [8] 0.008 | [9] 0.005 | IRAK-1-4 Inhibitor I -0.008 | ibrutinib -0.014 | [10] 0.002 | ralimetinib -0.027 | [11] -0.012 | [12] 0.077 | [13] 0.014 | pinometostat -0.051 | [14] -0.007 | [15] 0.052

TUBB1 (UniProt Q9H4B7)
inactive: erlotinib 0.036 | [1] 0.035 | [2] 0 | [3] 0.021 | [4] -0.049 | [5] -0.026 | [6] 0.146 | [7] 0.003 | [8] -0.036 | [9] 0.072 | IRAK-1-4 Inhibitor I 0.103 | ibrutinib 0.032 | [10] -0.002 | ralimetinib 0.031 | [11] -0.007 | [12] 0.009 | [13] -0.064 | pinometostat -0.075 | [14] -0.051 | [15] 0.02

UBE2R2 (UniProt Q712K3)
inactive: erlotinib -0.027 | [1] 0.025 | [2] 0.059 | [3] -0.021 | [4] -0.075 | [5] 0.04 | [6] 0.002 | [7] 0.021 | [8] 0.021 | [9] 0.017 | IRAK-1-4 Inhibitor I 0.066 | ibrutinib -0.011 | [10] -0.124 | ralimetinib -0.01 | [11] 0.011 | [12] -0.067 | [13] -0.014 | pinometostat -0.026 | [14] 0.043 | [15] -0.052

UBA2 (UniProt Q9UBT2)
inactive: erlotinib -0.035 | [1] 0.086 | [2] 0.077 | [3] 0 | [4] 0.022 | [5] 0.043 | [6] -0.022 | [7] 0.009 | [8] -0.002 | [9] -0.023 | IRAK-1-4 Inhibitor I 0.012 | ibrutinib -0.026 | [10] 0.076 | ralimetinib -0.024 | [11] -0.031 | [12] 0.042 | [13] -0.04 | pinometostat -0.034 | [14] -0.044 | [15] -0.025

Reprinted from the results shown (two entries):
TUBE1 (UniProt Q9UJT0)
inactive: erlotinib 0.03 | [1] 0.027 | [2] -0.011 | [3] 0.017 | [4] 0.009 | [5] -0.014 | [6] -0.022 | [7] 0.01 | [8] -0.016 | [9] -0.017 | IRAK-1-4 Inhibitor I -0.006 | ibrutinib 0.126 | [10] -0.045 | ralimetinib -0.011 | [11] 0.002 | [12] 0.087 | [13] 0.021 | pinometostat 0.07 | [14] 0.012 | [15] -0.005

TTC27 (UniProt Q6P3X3)
inactive: erlotinib 0.038 | [1] 0.126 | [2] -0.13 | [3] -0.053 | [4] -0.02 | [5] -0.026 | [6] 0.112 | [7] -0.01 | [8] -0.011 | [9] -0.099 | IRAK-1-4 Inhibitor I -0.079 | ibrutinib -0.135 | [10] 0.062 | ralimetinib 0.192 | [11] -0.02 | [12] -0.327 | [13] 0.092 | pinometostat 0.277 | [14] 0.008 | [15] -0.004

Next part

TTN isoform 12 (UniProt Q8WZ42)
inactive: erlotinib 0.143 | [1] -0.245 | [2] -0.004 | [3] 0.009 | [4] 0.227 | [5] -0.134 | [6] -0.125 | [7] -0.077 | [8] 0.076 | [9] -0.026 | IRAK-1-4 Inhibitor I 0.035 | ibrutinib 0 | [10] -0.086 | ralimetinib -0.124 | [11] -0.088 | [12] 0.074 | [13] 0.112 | pinometostat 0.019 | [14] 0.067 | [15] 0.076

TUBB6 (UniProt K7ES63)
inactive: erlotinib 0.276 | [1] -0.235 | [2] 0.055 | [3] -0.04 | [4] 0.221 | [5] 0.098 | [6] 0.055 | [7] -0.118 | [8] 0.229 | [9] 0.09 | IRAK-1-4 Inhibitor I 0.029 | ibrutinib -0.069 | [10] -0.135 | ralimetinib 0.006 | [11] 0.116 | [12] 0.011 | [13] -0.004 | pinometostat -0.106 | [14] -0.004 | [15] -0.035

TSTA3 (UniProt Q13630)
inactive: erlotinib 0 | [1] -0.011 | [2] 0.031 | [3] 0.006 | [4] 0.01 | [5] -0.039 | [6] -0.009 | [7] -0.008 | [8] -0.003 | [9] 0.035 | IRAK-1-4 Inhibitor I 0.008 | ibrutinib 0.022 | [10] -0.01 | ralimetinib -0.026 | [11] -0.044 | [12] 0.074 | [13] -0.006 | pinometostat -0.02 | [14] 0.039 | [15] 0.005

UBE2F isoform 2 (UniProt Q969M7)
inactive: erlotinib 0.041 | [1] 0.054 | [2] 0.053 | [3] 0.059 | [4] 0.001 | [5] -0.017 | [6] -0.001 | [7] 0.01 | [8] 0.005 | [9] 0.021 | IRAK-1-4 Inhibitor I 0.045 | ibrutinib 0.034 | [10] 0.054 | ralimetinib 0.033 | [11] -0.056 | [12] -0.013 | [13] 0.04 | pinometostat -0.022 | [14] 0.014 | [15] 0.022

TYW3 (UniProt Q6IPR3)
inactive: erlotinib 0.056 | [1] -0.036 | [2] -0.114 | [3] 0.034 | [4] -0.051 | [5] -0.051 | [6] -0.039 | [7] -0.019 | [8] -0.021 | [9] 0.062 | IRAK-1-4 Inhibitor I -0.004 | ibrutinib -0.002 | [10] -0.047 | ralimetinib -0.012 | [11] 0.057 | [12] 0.073 | [13] 0.036 | pinometostat 0.086 | [14] 0.094 | [15] 0.262

TXNL4A (UniProt P83876)
inactive: erlotinib -0.03 | [1] 0.007 | [2] -0.003 | [3] 0.037 | [4] 0.073 | [5] 0.023 | [6] -0.037 | [7] 0.012 | [8] 0.041 | [9] 0.056 | IRAK-1-4 Inhibitor I 0.032 | ibrutinib 0.024 | [10] -0.028 | ralimetinib -0.018 | [11] -0.074 | [12] -0.072 | [13] 0.011 | pinometostat 0.006 | [14] -0.004 | [15] -0.004

TSR2 (UniProt Q969E8)
inactive: erlotinib -0.077 | [1] 0.011 | [2] -0.075 | [3] -0.024 | [4] 0 | [5] 0.054 | [6] 0.1 | [7] 0.015 | [8] -0.061 | [9] -0.004 | IRAK-1-4 Inhibitor I 0.091 | ibrutinib 0.019 | [10] -0.052 | ralimetinib 0.056 | [11] 0.025 | [12] -0.045 | [13] -0.163 | pinometostat -0.103 | [14] 0.014 | [15] -0.109
